Laboratory results reported in the supplement of paper PMC10849652.
This is one part of the list.

By UniProt entry, the sequences of proteins in these tests, tags left out. Where a name states a change or a piece, a line headed by the entry shows the natural chain unless it says otherwise.
UniProt P0CG22: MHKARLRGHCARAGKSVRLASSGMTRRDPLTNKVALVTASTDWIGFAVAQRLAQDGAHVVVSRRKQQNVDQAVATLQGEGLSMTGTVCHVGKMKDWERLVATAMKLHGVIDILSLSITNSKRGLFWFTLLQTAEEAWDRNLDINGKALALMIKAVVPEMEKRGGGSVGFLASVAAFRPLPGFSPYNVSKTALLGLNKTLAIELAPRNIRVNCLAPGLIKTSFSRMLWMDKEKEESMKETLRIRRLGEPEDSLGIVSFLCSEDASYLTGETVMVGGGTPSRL
UniProt Q96M86: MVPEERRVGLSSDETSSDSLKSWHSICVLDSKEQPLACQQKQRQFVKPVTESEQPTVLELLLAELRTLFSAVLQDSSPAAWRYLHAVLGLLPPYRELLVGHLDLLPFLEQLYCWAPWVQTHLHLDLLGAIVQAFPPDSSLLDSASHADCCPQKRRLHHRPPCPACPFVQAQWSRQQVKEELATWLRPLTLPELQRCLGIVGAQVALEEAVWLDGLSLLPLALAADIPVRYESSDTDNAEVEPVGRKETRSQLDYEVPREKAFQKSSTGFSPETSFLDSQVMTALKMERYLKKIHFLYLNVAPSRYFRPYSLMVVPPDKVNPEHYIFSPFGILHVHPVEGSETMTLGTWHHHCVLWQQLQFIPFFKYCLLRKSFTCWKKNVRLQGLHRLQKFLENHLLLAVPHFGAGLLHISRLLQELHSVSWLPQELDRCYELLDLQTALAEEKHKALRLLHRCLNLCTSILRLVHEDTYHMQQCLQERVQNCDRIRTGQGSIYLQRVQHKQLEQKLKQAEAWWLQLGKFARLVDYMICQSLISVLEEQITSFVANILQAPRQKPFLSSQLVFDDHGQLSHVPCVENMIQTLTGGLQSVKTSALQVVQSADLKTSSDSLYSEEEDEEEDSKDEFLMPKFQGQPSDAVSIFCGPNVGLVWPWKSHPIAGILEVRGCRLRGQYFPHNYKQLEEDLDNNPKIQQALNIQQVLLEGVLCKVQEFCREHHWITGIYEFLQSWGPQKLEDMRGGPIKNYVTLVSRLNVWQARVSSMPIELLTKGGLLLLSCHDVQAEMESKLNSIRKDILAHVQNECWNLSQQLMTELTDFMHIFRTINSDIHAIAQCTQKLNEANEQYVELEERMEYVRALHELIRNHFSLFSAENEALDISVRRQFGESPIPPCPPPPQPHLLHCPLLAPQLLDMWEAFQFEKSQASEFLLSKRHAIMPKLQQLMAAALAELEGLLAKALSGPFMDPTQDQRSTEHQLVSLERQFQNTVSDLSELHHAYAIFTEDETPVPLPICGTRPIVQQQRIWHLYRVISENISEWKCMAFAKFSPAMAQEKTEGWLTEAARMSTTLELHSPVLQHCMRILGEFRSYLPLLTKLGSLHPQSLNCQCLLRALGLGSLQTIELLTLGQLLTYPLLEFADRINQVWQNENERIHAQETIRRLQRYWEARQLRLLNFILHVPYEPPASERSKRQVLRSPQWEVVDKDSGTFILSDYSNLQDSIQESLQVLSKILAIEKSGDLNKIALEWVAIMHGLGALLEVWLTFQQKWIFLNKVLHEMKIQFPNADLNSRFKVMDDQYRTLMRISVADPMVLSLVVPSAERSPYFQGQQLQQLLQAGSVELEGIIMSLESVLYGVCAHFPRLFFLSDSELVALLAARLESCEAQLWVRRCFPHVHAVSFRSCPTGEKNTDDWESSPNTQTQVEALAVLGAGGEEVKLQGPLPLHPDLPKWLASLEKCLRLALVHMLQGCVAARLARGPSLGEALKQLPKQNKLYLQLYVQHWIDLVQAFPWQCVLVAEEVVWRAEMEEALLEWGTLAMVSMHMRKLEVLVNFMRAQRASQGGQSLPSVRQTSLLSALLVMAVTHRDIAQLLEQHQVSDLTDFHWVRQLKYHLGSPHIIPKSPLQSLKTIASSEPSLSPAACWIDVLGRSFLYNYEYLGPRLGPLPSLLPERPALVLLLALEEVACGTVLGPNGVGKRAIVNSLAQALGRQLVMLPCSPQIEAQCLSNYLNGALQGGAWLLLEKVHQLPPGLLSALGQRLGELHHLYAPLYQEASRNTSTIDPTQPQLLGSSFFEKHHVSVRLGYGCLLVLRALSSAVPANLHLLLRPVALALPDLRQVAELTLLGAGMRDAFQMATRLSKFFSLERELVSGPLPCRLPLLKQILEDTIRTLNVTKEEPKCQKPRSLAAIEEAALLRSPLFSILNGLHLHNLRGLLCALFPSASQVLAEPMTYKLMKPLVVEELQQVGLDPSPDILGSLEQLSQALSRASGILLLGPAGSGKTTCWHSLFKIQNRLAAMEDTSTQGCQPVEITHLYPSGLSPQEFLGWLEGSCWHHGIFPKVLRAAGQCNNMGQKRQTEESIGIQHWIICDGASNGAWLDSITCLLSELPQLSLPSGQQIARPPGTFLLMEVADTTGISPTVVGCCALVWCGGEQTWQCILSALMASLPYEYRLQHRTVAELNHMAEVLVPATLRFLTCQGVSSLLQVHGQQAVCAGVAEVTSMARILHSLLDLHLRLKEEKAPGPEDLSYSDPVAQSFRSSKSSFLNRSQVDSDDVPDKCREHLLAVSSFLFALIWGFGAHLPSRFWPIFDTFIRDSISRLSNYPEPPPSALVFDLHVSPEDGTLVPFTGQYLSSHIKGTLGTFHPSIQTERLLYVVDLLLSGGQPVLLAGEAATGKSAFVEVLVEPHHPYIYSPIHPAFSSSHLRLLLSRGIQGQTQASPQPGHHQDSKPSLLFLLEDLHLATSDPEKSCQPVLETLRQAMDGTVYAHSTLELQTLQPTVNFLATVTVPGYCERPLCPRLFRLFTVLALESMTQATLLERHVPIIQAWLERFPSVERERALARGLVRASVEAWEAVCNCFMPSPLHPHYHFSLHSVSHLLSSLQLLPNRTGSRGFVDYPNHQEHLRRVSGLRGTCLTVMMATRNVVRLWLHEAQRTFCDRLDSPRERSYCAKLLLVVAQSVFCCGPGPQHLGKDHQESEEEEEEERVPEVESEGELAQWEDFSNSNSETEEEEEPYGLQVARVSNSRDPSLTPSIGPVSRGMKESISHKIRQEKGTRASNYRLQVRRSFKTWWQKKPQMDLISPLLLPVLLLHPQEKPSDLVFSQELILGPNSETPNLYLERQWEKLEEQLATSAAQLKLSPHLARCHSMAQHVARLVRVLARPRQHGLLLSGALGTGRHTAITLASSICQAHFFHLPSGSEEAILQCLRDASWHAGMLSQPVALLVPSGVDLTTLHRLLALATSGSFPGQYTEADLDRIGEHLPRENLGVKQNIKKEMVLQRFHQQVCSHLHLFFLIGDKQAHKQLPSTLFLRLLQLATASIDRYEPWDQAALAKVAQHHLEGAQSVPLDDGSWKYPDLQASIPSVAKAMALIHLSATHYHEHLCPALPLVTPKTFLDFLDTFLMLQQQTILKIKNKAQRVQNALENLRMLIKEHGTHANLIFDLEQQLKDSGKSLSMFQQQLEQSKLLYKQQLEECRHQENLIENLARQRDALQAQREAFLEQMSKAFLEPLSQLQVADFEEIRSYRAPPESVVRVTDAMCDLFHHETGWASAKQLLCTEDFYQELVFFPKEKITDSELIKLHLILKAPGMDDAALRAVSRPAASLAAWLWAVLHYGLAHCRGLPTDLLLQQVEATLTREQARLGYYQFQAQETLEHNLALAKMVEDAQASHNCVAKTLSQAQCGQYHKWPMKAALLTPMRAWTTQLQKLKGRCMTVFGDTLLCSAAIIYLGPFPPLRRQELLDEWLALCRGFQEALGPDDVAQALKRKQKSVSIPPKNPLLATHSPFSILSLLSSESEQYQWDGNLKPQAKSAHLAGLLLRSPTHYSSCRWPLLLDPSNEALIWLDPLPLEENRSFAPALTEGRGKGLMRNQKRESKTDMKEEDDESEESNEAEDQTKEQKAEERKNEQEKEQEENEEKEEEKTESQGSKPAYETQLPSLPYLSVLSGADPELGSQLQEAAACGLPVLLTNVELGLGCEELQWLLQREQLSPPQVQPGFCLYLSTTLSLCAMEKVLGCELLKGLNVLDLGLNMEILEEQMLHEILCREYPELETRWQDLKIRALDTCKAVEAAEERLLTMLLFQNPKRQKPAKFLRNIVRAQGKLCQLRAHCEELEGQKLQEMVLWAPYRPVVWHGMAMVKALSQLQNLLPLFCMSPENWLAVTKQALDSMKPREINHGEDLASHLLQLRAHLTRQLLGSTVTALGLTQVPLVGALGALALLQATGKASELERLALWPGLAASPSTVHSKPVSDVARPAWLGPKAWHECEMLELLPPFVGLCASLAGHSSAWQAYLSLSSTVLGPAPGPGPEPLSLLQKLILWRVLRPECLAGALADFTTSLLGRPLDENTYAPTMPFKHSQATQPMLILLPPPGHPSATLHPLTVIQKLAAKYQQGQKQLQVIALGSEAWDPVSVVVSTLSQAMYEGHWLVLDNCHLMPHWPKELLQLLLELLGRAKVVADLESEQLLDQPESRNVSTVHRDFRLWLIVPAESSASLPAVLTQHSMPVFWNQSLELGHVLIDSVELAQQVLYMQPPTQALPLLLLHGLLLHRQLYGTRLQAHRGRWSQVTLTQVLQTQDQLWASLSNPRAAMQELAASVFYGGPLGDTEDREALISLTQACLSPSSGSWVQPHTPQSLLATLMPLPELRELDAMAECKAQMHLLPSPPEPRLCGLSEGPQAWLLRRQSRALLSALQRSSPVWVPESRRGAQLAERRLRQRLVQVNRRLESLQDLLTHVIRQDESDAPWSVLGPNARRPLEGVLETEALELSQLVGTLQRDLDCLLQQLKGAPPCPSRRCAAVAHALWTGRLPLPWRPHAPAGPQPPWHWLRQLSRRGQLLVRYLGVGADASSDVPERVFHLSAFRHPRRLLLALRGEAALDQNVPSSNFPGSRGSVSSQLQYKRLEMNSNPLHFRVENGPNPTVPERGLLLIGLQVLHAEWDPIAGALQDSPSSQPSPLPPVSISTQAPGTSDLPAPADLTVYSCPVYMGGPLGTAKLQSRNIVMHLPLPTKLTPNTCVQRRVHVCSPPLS
UniProt Q9NW81: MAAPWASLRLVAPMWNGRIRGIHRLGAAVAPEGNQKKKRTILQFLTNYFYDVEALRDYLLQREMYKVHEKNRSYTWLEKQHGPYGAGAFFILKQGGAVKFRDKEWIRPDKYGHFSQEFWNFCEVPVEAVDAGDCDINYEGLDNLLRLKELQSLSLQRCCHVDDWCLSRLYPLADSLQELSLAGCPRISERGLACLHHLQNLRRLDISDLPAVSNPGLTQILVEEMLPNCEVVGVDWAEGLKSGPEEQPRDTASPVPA
UniProt Q15398: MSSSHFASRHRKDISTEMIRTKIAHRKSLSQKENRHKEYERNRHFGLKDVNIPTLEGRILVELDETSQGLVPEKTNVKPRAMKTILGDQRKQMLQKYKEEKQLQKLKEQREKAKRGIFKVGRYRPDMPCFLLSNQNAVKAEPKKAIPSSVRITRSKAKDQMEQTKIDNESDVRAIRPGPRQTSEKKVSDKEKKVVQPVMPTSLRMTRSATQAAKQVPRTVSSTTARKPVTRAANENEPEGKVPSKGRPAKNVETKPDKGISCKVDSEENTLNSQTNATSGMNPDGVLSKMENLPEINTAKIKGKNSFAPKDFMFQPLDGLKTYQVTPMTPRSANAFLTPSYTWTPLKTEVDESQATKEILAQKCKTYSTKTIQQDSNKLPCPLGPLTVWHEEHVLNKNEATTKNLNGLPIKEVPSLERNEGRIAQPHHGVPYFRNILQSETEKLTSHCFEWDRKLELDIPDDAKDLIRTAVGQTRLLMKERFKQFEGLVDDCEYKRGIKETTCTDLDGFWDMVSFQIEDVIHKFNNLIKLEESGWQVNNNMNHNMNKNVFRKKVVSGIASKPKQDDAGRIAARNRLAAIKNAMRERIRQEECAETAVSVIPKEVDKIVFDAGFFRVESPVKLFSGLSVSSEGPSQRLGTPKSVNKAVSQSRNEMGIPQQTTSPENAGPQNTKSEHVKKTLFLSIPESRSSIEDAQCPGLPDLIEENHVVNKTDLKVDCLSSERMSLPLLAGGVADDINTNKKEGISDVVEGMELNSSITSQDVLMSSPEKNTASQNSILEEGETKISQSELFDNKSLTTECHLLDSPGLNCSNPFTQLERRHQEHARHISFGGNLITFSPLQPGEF
UniProt Q5T7M9: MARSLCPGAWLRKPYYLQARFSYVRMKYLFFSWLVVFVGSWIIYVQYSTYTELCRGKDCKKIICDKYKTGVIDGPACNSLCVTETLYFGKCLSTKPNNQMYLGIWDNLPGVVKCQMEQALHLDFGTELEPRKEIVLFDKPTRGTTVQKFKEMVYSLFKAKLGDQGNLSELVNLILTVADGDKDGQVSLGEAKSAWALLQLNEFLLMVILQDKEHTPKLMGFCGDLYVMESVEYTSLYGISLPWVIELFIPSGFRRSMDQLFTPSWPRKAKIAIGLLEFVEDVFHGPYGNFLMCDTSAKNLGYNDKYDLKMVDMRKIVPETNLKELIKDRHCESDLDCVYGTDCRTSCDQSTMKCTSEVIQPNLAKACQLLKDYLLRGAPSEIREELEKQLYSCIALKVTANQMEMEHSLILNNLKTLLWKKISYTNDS

How the values were obtained:
Test in all cases: log2 fold change, soluble protein after heating vs DMSO (PISA); higher = thermal stabilisation; K562 lysate, 10 uM; active = over 0.2 and 3.5 SD of the protein, either way, in both replicates (recomputed)
[1] = compound: CS(=O)(=O)CCNCc1ccc(-c2ccc3ncnc(Nc4ccc(OCc5cccc(F)c5)c(Cl)c4)c3c2)o1 [lapatinib]
In short: (§1)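 Dounce homogenisation of K562 pellets in PBS pH 7.4 with 1 mM MgCl2 produced a crude extract, used at 1 mg/mL protein. Exposure to 10 μM compound lasted 30 min, and aliquots were then heated for 3 min across 48°C-58°C, pooled and brought to 0.5% NP-40 at 4°C. The supernatant after 21,000xg for 90 min was quantified by TMTpro 16plex LC-MS/MS with channel sums equalised. Duplicate values are given as log-two fold change in thermal stability relative to solvent controls.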

[2] = compound: C[C@@H](Oc1cc(-c2cnn(C3CCNCC3)c2)cnc1N)c1c(Cl)ccc(F)c1Cl [crizotinib]
In short: as §1

[3] = compound: C[C@H](C1=CC=C(C=C1)C(=O)NC2=C3C=CNC3=NC=C2)N
In short: as §1

[4] = compound: C[C@H](Nc1ncnc2nc[nH]c12)c1cc2cccc(Cl)c2c(=O)n1-c1ccccc1 [duvelisib]
In short: as §1

[5] = compound: Cc1cc(Nc2cc(CN3CCOCC3)c3nc(C)c(Cc4ccc(Cl)cc4F)n3n2)n[nH]1 [gandotinib]
In short: as §1

[6] = compound: Cc1cc(Nc2cc(N3CCN(C)CC3)nc(Sc3ccc(NC(=O)C4CC4)cc3)n2)n[nH]1 [tozasertib]
In short: as §1

[7] = compound: Cc1ccc(-n2nc(C(C)(C)C)cc2NC(=O)Nc2ccc(OCCN3CCOCC3)c3ccccc23)cc1 [doramapimod]
In short: as §1

[8] = compound: Cc1cccc(CC(=O)N2CCc3c2ccc(-c2cn(C)c4ncnc(N)c24)c3F)n1
In short: as §1

[9] = compound: Cc1cn(-c2cc(NC(=O)c3ccc(C)c(Nc4nccc(-c5cccnc5)n4)c3)cc(C(F)(F)F)c2)cn1 [nilotinib]
In short: as §1

[10] = compound: Cc1nc(Nc2n[nH]c3c2CN(C(=O)N[C@H](CN(C)C)c2ccccc2)C3(C)C)c2sccc2n1
In short: as §1

[11] = compound: Cc1nc(Nc2ncc(C(=O)Nc3c(C)cccc3Cl)s2)cc(N2CCN(CCO)CC2)n1 [dasatinib]
In short: as §1

[12] = compound: Cc1ncc(-c2ccnc(Nc3ccc(S(C)(=O)=O)cc3)n2)n1C(C)C
In short: as §1

[13] = compound: Cn1cc(-c2ccc3c(c2)CCN3C(=O)Cc2cccc(C(F)(F)F)c2)c2c(N)ncnc21
In short: as §1

[14] = compound: Cn1cc(CNCC2CCN(c3ncc(C(=O)NO)cn3)CC2)c2ccccc21 [quisinostat]
In short: as §1

[15] = compound: Cn1cncc1[C@@](N)(c1ccc(Cl)cc1)c1ccc2c(c1)c(-c1cccc(Cl)c1)cc(=O)n2C [tipifarnib]
In short: as §1

[16] = compound: NC(=O)Nc1cc(-c2cccc(F)c2)sc1C(=O)N[C@H]1CCCNC1
In short: as §1

[17] = compound: NC(=O)c1cnc(N[C@@H]2CCCC[C@@H]2N)nc1Nc1cccc(-n2nccn2)c1
In short: as §1

[18] = compound: NC1(c2ccc(-c3nc4ccn5c(=O)[nH]nc5c4cc3-c3ccccc3)cc2)CCC1
In short: as §1

[19] = compound: CS(=O)(=O)N1CCN(Cc2cc3nc(-c4cccc5[nH]ncc45)nc(N4CCOCC4)c3s2)CC1 [pictilisib]
In short: as §1

[20] = compound: Cc1ccc(NC(=O)c2ccc(CN3CC[C@H](N(C)C)C3)c(C(F)(F)F)c2)cc1Nc1nccc(-c2cncnc2)n1 [bafetinib]
In short: as §1

Measured: log2 fold change

DOCK2 (UniProt Q92608)
inactive: [1] -0.003 | [2] 0.003 | [3] -0.134 | [4] 0.047 | [5] 0.008 | [6] 0.069 | [7] 0.047 | [8] 0.154 | [9] -0.021 | [10] 0.078 | [11] 0.02 | [12] -0.035 | [13] -0.013 | [14] -0.056 | [15] -0.094 | [16] 0.094 | [17] -0.081 | [18] -0.116

DNMT3A (UniProt Q9Y6K1)
inactive: [1] -0.133 | [3] 0.142 | [5] -0.17 | [8] -0.229 | [17] -0.016 | [18] -0.202

DIP2B (UniProt Q9P265)
inactive: [1] -0.005 | [19] -0.023 | [2] -0.026 | [3] -0.03 | [4] 0.004 | [5] 0.026 | [6] 0.008 | [7] -0.008 | [20] -0.047 | [8] 0 | [9] 0.017 | [10] -0.002 | [11] 0.027 | [12] 0.004 | [13] 0.02 | [14] -0.044 | [15] 0.041 | [16] 0.013 | [17] -0.019 | [18] -0.021

DHRS4L1 (UniProt P0CG22)
inactive: [1] 0.027 | [19] -0.033 | [2] -0.039 | [3] -0.189 | [4] 0.015 | [5] -0.228 | [6] 0.106 | [7] 0.005 | [20] 0.1 | [8] -0.014 | [11] -0.116 | [13] -0.089 | [14] -0.065 | [16] 0.037 | [17] 0.018 | [18] 0.458

DPAGT1 (UniProt Q9H3H5)
inactive: [1] -0.027 | [19] 0.044 | [2] 0.007 | [3] -0.142 | [5] 0.112 | [7] 0.031 | [20] 0.062 | [8] 0.086 | [9] -0.037 | [10] 0.01 | [12] -0.033 | [14] -0.036 | [15] -0.06 | [16] 0.001 | [17] 0.004 | [18] 0.044

DHX33 (UniProt Q9H6R0)
inactive: [1] -0.013 | [3] -0.087 | [4] 0.004 | [5] 0.17 | [8] -0.007 | [11] 0.049 | [13] 0.059 | [17] -0.006

DNHD1 (UniProt Q96M86)
inactive: [1] -0.05 | [19] -0.095 | [2] -0.004 | [7] -0.015 | [20] -0.42 | [14] -0.211 | [16] -0.022 | [17] 0.094 | [18] -0.024

DHTKD1 (UniProt Q96HY7)
inactive: [1] 0.021 | [19] 0.085 | [2] -0.053 | [3] 0.113 | [5] 0.04 | [7] -0.042 | [20] -0.12 | [8] -0.119 | [9] 0.031 | [10] -0.173 | [12] 0.177 | [14] -0.114 | [15] -0.109 | [16] 0.034 | [17] 0.054 | [18] -0.108

DIS3 (UniProt Q9Y2L1)
inactive: [1] -0.018 | [19] -0.016 | [2] -0.012 | [3] -0.003 | [4] 0.001 | [5] -0.038 | [6] -0.003 | [7] 0.024 | [20] -0.012 | [8] 0.01 | [9] -0.006 | [10] 0.008 | [11] -0.011 | [12] 0.03 | [13] 0.018 | [14] -0.008 | [15] 0.044 | [16] 0.015 | [17] -0.007 | [18] -0.008

DMAC2 isoform 4 (UniProt Q9NW81)
inactive: [1] -0.084 | [19] 0.083 | [2] -0.029 | [3] 0.036 | [5] -0.033 | [6] -0.025 | [7] -0.177 | [20] -0.011 | [8] -0.059 | [9] -0.011 | [10] 0.027 | [12] -0.121 | [14] 0.008 | [15] -0.063 | [16] 0.099 | [17] -0.046 | [18] 0.041

DONSON (UniProt Q9NYP3)
inactive: [1] -0.012 | [19] -0.019 | [2] -0.012 | [3] -0.32 | [4] 0.007 | [5] 0.196 | [7] 0.07 | [20] -0.033 | [8] -0.157 | [9] 0.035 | [10] 0.004 | [11] -0.031 | [12] 0.066 | [13] -0.035 | [14] -0.051 | [15] -0.024 | [16] -0.003 | [17] -0.022 | [18] 0.082

DOK2 (UniProt O60496)
inactive: [1] 0.151 | [3] -0.087 | [5] 0.15 | [8] -0.12 | [17] 0.064 | [18] -0.043

DNPEP (UniProt C9JBE1)
inactive: [1] -0.035 | [19] 0.049 | [3] -0.306 | [5] 0.105 | [6] 0.082 | [20] -0.239 | [8] 0.171 | [9] -0.049 | [10] -0.006 | [12] 0.018 | [15] -0.132 | [17] 0.019

DMTN isoform 2 (UniProt Q08495)
inactive: [1] -0.061 | [2] 0.039 | [3] -0.018 | [4] -0.027 | [5] -0.06 | [6] -0.069 | [7] 0.022 | [8] 0.035 | [11] -0.032 | [13] -0.143 | [14] -0.126 | [16] -0.076 | [17] 0.014 | [18] -0.041

DLG5 (UniProt Q8TDM6)
inactive: [19] 0.029 | [4] 0.149 | [20] 0.038 | [11] 0.024 | [13] -0.052

Taken from the listing (6 entries):
DMAC2 isoform 4 (UniProt Q9NW81)
inactive: [1] -0.084 | [19] 0.083 | [2] -0.029 | [3] 0.036 | [5] -0.033 | [6] -0.025 | [7] -0.177 | [20] -0.011 | [8] -0.059 | [9] -0.011 | [10] 0.027 | [12] -0.121 | [14] 0.008 | [15] -0.063 | [16] 0.099 | [17] -0.046 | [18] 0.041

DONSON (UniProt Q9NYP3)
inactive: [1] -0.012 | [19] -0.019 | [2] -0.012 | [3] -0.32 | [4] 0.007 | [5] 0.196 | [7] 0.07 | [20] -0.033 | [8] -0.157 | [9] 0.035 | [10] 0.004 | [11] -0.031 | [12] 0.066 | [13] -0.035 | [14] -0.051 | [15] -0.024 | [16] -0.003 | [17] -0.022 | [18] 0.082

DOK2 (UniProt O60496)
inactive: [1] 0.151 | [3] -0.087 | [5] 0.15 | [8] -0.12 | [17] 0.064 | [18] -0.043

DNPEP (UniProt C9JBE1)
inactive: [1] -0.035 | [19] 0.049 | [3] -0.306 | [5] 0.105 | [6] 0.082 | [20] -0.239 | [8] 0.171 | [9] -0.049 | [10] -0.006 | [12] 0.018 | [15] -0.132 | [17] 0.019

DMTN isoform 2 (UniProt Q08495)
inactive: [1] -0.061 | [2] 0.039 | [3] -0.018 | [4] -0.027 | [5] -0.06 | [6] -0.069 | [7] 0.022 | [8] 0.035 | [11] -0.032 | [13] -0.143 | [14] -0.126 | [16] -0.076 | [17] 0.014 | [18] -0.041

DLG5 (UniProt Q8TDM6)
inactive: [19] 0.029 | [4] 0.149 | [20] 0.038 | [11] 0.024 | [13] -0.052

More records

DOCK6 (UniProt Q96HP0)
inactive: [4] -0.144 | [11] 0.121 | [13] -0.099 | [18] -0.026

DGKH (UniProt Q86XP1)
inactive: [19] -0.034 | [2] 0 | [3] -0.027 | [4] 0.109 | [5] -0.032 | [6] -0.107 | [7] 0.247 | [20] 0.058 | [8] 0.002 | [9] 0.127 | [10] 0 | [11] 0.014 | [12] 0.215 | [13] 0.122 | [14] -0.08 | [15] -0.082 | [16] 0.049 | [18] 0.027

DOCK11, A0A0J9YW64
inactive: [19] -0.164 | [3] 0.032 | [5] -0.251 | [20] -0.151 | [8] -0.191 | [9] -0.005 | [10] -0.019 | [12] -0.061 | [15] 0.088

DLGAP5 isoform 3 (UniProt Q15398)
inactive: [19] 0.092 | [3] -0.176 | [4] -0.098 | [5] 0.05 | [20] 0.031 | [8] -0.505 | [11] 0.017 | [13] 0.18

DIPK1A (UniProt Q5T7M9)
inactive: [6] 0.071
